2 substances from PMC12703428 (Chembiochem, 2025) can be followed below.

This data set can be described thus: general procedure: peptide synthesis; 2-chlorotrityl resin; HCTU / 2,4,6-collidine (SPPS); HATU / 2,4,6-trimethylpyridine (solution coupling).

Strings that start with PEPTIDE1 are HELM notation: dots part the residues, brackets hold end groups and non-standard residues.

As for “PEPTIDE1{[ac].I.G.N.[ArgP(OPh)2]}$$$$V2.0”, the step yield was determined as 9%.
The figure for “PEPTIDE1{[ac].I.G.N.[ArgP(OPh)Ph]}$$$$V2.0” is 13%.
